Publication doi:10.1101/2025.04.06.647459
Read-outs that look alike come from different tables or passages of the source. No constants are given. Whether binding was seen depends on the method and setting. In cells and extracts the contact can be indirect. Some entries that bind do so weakly or less than the wild type. For some of these results: Where a sequence is shown, tags or fusion partners need not be part of it.

Amino acid sequences for entries named in this document (tags omitted).
UniProt P63168: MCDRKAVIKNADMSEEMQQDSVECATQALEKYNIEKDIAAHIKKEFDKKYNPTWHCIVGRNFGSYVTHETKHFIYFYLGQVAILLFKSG
UniProt P62259: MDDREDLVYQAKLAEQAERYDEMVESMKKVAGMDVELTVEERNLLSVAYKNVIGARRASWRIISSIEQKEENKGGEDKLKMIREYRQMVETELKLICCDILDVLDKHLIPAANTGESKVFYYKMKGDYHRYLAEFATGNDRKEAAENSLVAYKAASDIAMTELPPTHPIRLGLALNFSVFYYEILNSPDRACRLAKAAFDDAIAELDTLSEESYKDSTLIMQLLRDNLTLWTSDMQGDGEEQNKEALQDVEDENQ

What was measured:
Assay in all cases: co-IP
[1] = target: EML3 TQT86AAA mutant, expressed from mouse cDNA in HEK293T cells (mouse) (UniProt Q8VC03)
[2] = target: T1, EML3, untagged, expressed from mouse cDNA in HEK293T cells (mouse) (UniProt Q8VC03)
T1 sequence: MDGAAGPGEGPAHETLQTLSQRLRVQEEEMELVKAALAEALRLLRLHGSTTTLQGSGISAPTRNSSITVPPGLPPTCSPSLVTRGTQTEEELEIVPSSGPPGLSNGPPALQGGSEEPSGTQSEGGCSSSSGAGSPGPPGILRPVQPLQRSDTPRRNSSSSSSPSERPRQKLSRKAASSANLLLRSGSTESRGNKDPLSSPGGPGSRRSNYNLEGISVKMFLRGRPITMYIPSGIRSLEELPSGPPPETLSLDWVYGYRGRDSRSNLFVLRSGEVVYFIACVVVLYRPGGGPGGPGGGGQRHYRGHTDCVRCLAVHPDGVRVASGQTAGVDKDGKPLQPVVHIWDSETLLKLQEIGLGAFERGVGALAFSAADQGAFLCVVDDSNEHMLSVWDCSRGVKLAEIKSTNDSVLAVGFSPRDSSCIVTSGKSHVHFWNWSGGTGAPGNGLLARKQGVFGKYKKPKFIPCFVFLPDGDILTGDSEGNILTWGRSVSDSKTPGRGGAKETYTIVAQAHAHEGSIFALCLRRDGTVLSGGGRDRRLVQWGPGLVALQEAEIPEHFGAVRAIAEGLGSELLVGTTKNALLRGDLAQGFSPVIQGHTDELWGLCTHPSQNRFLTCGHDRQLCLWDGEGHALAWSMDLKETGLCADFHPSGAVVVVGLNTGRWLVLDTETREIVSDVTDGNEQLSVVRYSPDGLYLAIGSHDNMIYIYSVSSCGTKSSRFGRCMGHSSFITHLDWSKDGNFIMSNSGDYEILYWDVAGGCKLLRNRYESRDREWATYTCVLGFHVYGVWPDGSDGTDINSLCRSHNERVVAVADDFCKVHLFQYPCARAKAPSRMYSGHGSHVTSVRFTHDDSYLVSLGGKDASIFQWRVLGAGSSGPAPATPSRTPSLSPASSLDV

[3] = target: T1, EML3, untagged, expressed from mouse cDNA in HEK293T cells (mouse); remark: listed apart in the source

DYNLL1-FLAG, expressed from mouse cDNA in HEK293T cells (from UniProt P63168 1-89)
binding [1]: no binding | binding [2]: binds

YWHAE-FLAG (14-3-3 epsilon), expressed from mouse cDNA in HEK293T cells (from UniProt P62259 1-255)
binding [2]: binds

B1: 14-3-3 gamma (YWHAG), expressed in transfected cells (protein, UniProt P61982 1-247)
chain: MVDREQLVQKARLAEQAERYDDMAAAMKNVTELNEPLSNEERNLLSVAYKNVVGARRSSWRVISSIEQKTSADGNEKKIEMVRAYREKIEKELEAVCQDVLSLLDNYLIKNCSETQYESKVFYLKMKGDYYRYLAEVATGEKRATVVESSEKAYSEAHEISKEHMQPTHPIRLGLALNYSVFYYEIQNAPEQACHLAKTAFDDAIAELDTLNEDSYKDSTLIMQLLRDNLTLWTSDQQDDDGGEGNN
binding [3]: binds
